The target of the data set is T1, SlmA (UniProt P0C093).
T1 sequence (looked up, limits assumed): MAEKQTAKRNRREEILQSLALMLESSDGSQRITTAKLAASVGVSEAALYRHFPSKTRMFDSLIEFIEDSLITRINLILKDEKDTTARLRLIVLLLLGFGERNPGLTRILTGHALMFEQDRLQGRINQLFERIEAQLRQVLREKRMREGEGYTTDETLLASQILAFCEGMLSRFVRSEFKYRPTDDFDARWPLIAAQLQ
In words: fluorescence anisotropy. The note with it: 500 mM KCl, no saturation at 4 uM SlmA monomer; 50 mM Tris-HCl, 300 mM KCl, 2 mM MgCl2, pH 7.5, 20 C; 10 nM labeled SBS in SlmA anisotropy titrations; recombinant protein; protein details: SUMO tag cleaved off. In general terms: Polarisation of emitted light reports the rotation of a fluorescent probe.

The exact form of at least one protein or probe is not confirmed. The comparison behind a weaker result is the experiment's own reference, which may not be listed here. Tags and fusion partners may be left off the protein sequences shown.

Turning to “TCAACGTTAGTGACCATTTACTTACTTTTG (double strand) [SBS17]”, the binding result is reported as “binds more weakly”.

These data come from article PMC4423959, “The Nucleoid Occlusion SlmA Protein Accelerates the Disassembly of the FtsZ Protein Polymers without Affecting Their GTPase Activity” (PLoS ONE, 2015).
